From the supplement of paper PMC10849652
The list shows a part of the results.

Sequences of proteins named here, by UniProt entry; tags and fusion partners are left off. A change or cut given only in a name is not applied to a line headed by its entry.
UniProt Q13535: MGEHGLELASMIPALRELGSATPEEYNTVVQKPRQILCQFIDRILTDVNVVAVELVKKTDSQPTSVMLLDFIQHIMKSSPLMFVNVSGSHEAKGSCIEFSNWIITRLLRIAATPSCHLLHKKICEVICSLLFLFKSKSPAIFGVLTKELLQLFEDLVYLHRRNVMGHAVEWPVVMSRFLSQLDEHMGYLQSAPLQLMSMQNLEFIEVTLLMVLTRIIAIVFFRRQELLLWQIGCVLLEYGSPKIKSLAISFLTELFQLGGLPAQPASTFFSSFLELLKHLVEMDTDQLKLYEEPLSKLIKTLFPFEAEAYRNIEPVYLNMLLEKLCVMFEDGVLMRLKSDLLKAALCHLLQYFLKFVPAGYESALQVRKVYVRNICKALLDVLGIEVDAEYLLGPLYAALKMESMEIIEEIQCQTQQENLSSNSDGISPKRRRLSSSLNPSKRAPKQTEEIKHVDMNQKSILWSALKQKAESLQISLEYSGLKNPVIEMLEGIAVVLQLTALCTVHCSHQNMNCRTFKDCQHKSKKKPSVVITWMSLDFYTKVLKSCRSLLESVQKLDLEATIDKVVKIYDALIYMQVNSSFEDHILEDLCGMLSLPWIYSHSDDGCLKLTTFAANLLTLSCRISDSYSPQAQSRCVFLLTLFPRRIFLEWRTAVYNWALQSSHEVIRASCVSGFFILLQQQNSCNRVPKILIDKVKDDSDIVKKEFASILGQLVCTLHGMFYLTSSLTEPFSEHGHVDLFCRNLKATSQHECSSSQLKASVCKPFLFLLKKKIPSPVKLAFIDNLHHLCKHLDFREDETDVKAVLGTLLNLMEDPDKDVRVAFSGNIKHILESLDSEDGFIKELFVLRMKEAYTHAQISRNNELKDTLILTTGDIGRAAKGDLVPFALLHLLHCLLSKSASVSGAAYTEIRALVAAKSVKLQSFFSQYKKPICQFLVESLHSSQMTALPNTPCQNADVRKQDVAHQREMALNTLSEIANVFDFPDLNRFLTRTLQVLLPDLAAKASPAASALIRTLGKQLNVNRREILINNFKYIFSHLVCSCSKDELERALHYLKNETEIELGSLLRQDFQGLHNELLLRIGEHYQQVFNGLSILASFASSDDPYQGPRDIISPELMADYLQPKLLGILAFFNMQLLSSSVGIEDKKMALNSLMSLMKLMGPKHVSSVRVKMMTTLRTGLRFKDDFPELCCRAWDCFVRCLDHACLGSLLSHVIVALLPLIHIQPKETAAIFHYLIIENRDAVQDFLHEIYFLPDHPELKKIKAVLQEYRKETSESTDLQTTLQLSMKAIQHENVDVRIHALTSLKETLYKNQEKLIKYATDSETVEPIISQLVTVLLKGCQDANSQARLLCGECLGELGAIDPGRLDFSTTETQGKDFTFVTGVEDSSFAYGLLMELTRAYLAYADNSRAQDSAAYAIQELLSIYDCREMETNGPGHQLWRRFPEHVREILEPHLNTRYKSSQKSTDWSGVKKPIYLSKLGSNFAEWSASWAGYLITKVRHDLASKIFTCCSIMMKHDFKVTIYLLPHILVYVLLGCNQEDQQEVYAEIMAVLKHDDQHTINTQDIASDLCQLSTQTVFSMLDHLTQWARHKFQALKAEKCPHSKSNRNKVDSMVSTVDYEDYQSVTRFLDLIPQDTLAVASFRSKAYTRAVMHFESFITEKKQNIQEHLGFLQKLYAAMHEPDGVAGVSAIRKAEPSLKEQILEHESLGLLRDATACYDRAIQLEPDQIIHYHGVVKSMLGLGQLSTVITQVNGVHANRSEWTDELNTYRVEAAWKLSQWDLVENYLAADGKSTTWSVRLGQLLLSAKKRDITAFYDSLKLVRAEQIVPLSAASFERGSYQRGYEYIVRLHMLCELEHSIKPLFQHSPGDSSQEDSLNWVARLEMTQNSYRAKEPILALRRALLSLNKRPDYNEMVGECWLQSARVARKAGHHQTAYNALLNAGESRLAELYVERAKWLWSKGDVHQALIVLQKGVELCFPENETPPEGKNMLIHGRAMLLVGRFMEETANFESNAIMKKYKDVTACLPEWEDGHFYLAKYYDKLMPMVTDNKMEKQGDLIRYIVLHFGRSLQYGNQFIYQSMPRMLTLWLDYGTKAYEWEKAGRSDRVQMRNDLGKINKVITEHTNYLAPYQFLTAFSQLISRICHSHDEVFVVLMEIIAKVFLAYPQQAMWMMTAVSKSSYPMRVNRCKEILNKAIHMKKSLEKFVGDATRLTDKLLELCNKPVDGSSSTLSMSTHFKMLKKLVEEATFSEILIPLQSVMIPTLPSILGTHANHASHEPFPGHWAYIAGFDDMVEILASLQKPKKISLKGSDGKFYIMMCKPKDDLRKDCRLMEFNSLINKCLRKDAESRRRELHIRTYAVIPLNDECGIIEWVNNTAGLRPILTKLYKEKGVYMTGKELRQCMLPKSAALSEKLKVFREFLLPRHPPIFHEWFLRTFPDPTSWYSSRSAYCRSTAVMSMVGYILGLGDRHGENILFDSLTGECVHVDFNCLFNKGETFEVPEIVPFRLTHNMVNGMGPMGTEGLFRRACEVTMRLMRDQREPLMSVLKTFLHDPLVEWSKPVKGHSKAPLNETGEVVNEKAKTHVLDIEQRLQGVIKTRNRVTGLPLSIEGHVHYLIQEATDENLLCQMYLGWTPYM
UniProt Q15059, whole entry, looked up: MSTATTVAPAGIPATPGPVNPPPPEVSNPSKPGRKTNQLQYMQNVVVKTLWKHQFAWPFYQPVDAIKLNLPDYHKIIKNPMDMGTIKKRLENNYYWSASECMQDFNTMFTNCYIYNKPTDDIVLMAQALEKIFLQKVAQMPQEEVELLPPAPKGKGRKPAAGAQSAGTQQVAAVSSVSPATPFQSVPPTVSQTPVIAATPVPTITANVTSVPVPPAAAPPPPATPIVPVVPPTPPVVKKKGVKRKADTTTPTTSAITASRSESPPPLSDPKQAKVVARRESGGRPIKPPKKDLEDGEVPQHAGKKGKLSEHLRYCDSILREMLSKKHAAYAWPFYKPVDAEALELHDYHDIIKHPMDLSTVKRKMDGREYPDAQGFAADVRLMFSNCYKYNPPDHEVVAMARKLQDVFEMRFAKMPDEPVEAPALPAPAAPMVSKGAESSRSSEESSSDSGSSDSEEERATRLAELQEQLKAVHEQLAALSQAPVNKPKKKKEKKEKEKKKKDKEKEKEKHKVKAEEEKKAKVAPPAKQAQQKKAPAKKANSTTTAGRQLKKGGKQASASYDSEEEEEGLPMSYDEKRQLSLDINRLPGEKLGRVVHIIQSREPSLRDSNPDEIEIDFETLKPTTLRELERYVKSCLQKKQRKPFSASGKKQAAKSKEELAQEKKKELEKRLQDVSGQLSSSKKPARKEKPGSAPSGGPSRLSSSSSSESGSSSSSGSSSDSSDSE
UniProt P61769, whole entry, looked up: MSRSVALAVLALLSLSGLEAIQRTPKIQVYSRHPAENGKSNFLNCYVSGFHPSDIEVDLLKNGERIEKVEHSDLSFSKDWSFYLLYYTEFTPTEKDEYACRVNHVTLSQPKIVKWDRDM
UniProt O95429: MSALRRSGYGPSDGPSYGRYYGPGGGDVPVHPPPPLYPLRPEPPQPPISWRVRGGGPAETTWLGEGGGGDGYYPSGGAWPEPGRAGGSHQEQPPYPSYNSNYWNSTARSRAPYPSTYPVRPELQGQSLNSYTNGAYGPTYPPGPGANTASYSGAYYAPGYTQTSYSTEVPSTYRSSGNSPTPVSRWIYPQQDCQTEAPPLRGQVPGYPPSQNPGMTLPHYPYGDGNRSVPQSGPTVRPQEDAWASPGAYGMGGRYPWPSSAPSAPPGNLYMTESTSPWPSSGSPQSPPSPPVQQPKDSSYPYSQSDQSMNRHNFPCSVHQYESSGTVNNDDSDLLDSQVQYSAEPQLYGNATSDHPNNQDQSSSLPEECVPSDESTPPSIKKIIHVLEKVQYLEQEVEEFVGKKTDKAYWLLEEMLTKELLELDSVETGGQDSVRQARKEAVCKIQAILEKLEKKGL
UniProt Q9NUP1: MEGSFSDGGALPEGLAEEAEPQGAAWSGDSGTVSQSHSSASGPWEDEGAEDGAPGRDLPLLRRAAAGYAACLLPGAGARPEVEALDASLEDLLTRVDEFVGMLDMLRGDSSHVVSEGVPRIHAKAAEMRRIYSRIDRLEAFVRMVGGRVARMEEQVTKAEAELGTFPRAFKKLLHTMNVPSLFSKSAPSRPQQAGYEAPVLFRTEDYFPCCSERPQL
UniProt Q07812, whole entry, looked up: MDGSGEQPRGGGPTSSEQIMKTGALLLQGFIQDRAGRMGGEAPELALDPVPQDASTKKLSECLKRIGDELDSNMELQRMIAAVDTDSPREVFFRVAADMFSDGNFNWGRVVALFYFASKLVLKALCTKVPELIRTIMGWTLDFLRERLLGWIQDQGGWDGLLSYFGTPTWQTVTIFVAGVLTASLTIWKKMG
UniProt P51572: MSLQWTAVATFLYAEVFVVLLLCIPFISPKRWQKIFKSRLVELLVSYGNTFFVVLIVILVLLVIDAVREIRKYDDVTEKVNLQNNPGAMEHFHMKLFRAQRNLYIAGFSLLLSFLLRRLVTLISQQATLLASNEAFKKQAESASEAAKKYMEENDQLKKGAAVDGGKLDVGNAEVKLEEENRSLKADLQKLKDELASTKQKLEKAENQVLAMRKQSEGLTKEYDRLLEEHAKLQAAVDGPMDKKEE
UniProt P53004: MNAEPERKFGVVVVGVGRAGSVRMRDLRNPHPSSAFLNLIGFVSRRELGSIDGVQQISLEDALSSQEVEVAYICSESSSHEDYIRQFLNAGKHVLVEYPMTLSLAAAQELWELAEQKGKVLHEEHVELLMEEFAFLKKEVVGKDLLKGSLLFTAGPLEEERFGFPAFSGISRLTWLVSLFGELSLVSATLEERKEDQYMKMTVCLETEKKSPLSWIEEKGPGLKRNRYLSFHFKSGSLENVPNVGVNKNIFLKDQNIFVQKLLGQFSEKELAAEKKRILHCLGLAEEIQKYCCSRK
UniProt Q9H3K6: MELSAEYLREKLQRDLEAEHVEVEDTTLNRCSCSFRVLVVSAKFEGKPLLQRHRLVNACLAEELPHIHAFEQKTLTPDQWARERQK
UniProt O43505: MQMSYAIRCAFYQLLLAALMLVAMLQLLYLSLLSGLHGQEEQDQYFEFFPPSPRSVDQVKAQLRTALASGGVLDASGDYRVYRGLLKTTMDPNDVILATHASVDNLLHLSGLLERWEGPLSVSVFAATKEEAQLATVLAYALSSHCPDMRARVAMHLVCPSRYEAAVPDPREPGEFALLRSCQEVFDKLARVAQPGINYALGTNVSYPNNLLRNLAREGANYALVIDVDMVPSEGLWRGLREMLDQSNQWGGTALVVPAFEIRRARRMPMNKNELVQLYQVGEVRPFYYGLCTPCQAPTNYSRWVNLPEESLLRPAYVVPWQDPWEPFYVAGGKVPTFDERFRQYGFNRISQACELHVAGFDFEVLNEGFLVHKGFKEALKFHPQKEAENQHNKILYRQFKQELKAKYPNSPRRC
UniProt Q8TDN6: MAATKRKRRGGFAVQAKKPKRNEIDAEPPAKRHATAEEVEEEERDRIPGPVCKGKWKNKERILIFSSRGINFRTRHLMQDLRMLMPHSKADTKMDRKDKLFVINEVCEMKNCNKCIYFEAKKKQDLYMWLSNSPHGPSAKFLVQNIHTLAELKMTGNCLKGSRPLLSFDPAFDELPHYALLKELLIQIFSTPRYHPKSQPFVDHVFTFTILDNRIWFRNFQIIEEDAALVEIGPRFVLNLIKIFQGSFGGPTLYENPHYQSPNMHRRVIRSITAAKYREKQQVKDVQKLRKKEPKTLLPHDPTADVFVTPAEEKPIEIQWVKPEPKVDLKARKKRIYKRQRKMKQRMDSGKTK
UniProt O95999: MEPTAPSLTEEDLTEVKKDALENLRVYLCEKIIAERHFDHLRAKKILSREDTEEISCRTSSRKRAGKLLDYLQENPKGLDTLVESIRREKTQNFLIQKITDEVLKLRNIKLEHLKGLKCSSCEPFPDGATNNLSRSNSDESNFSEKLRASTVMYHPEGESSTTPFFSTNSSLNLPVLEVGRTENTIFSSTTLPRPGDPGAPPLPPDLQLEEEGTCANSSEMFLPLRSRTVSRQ
UniProt Q5VW32: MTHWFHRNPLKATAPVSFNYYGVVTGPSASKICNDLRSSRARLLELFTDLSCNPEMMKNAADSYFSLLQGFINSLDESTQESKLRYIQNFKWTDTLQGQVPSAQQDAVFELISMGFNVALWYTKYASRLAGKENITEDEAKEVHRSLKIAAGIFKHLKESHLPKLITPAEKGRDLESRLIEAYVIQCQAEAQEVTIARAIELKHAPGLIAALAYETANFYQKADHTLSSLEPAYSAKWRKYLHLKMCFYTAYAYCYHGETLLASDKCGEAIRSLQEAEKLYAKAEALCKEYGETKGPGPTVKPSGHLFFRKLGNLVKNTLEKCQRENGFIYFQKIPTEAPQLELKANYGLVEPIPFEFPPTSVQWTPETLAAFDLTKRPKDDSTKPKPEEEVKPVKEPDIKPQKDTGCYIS
UniProt Q9BXH1: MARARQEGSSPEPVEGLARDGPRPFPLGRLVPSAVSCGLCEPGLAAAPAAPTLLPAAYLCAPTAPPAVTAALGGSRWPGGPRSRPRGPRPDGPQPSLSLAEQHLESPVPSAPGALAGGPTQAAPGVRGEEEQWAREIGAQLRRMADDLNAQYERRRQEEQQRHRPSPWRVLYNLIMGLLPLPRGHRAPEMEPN

Compound: O=C(CCCCCCNC(=O)c1cnc(N(c2ccccc2)c2ccccc2Cl)nc1)NO [citarinostat]
Experiment: log2 fold change, soluble protein after heating vs DMSO (PISA); higher = thermal stabilisation; K562 cells, 10 uM, 30 min; active = over 0.2 and 3.5 SD of the protein, either way, in both replicates (recomputed)
Summary of the method: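 Soluble protein was quantified by TMTpro 16plex LC-MS/MS after channel sums were equalised. It was obtained as the supernatant after 21,000xg for 90 min from pooled aliquots of K562 cells (2×10^6 cells/mL, 10 μM compound, 30 min) heated for 3 min across 48°C-58°C and extracted in PBS with 0.5% NP-40 at 4°C. Thermal stability values are relative to control samples and come from duplicates. They are given as log2 fold changes.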

| Target | log2 fold change |
| --- | --- |
| ATR (UniProt Q13535) | inactive: 0.039 |
| BRD3 (UniProt Q15059) | active: -0.567 |
| BRIP1 (UniProt Q9BX63) | inactive: 0.054 |
| B2M (UniProt P61769) | inactive: 0.036 |
| BAG4 (UniProt O95429) | inactive: 0.019 |
| ATRIP (UniProt Q8WXE1) | inactive: -0.028 |
| BAG1 (UniProt Q99933) | inactive: 0.014 |
| BLOC1S4 (UniProt Q9NUP1) | inactive: 0.133 |
| BAX isoform 2 (UniProt Q07812) | inactive: -0.035 |
| ATRN (UniProt O75882) | inactive: -0.004 |
| BCAP31 isoform 2 (UniProt P51572) | inactive: -0.021 |
| BLVRA (UniProt P53004) | inactive: 0.021 |
| BPGM (UniProt P07738) | inactive: 0.034 |
| BLOC1S3 (UniProt Q6QNY0) | inactive: -0.018 |
| ATRAID isoform 3 (UniProt Q6UW56) | inactive: 0.036 |
| ATXN2L (UniProt Q8WWM7) | inactive: 0.011 |
| BOLA2 (UniProt Q9H3K6) | inactive: 0.037 |
| B4GAT1 (UniProt O43505) | inactive: 0.114 |
| BABAM2 (UniProt Q9NXR7) | inactive: -0.001 |
| BRIX1 (UniProt Q8TDN6) | inactive: -0.05 |
| BCL10 (UniProt O95999) | inactive: 0.145 |
| BROX (UniProt Q5VW32) | inactive: 0.061 |
| BBC3 (UniProt Q9BXH1) | inactive: 0.04 |

Rewritten tab-delimited: part of the list above.
Target	log2 fold change
BABAM2 (UniProt Q9NXR7)	inactive: -0.001
BRIX1 (UniProt Q8TDN6)	inactive: -0.05
